Data as given in PubChem BioAssay AID686943 (Drosophila RNAi Screening Center, 2013)
The deposit covers about 23,000 reagents; shown is a random part of those that have a named target and a result. 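Extra replicates exist only for a retested subset of genes; insulin dose and duration not given; both raised and lowered dpERK matter.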 Names joined by + are all predicted targets of the reagent. No sequences are given here. Not given: the amount of reagent, the time to read-out.

Screen: 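Search across the genome for regulators of signalling from receptor tyrosine kinase to ERK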 (primary screen)
Cell system: Drosophila S2R+ haemocyte-like cells expressing YFP-tagged ERK (Rolled)
Reagent: long dsRNA against Drosophila genes
Treatment: insulin stimulation versus unstimulated cells; dose and duration not given
Measurement: 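Antibody staining for doubly phosphorylated ERK divided by ERK-YFP signal, as plate z-scores, in insulin-treated and untreated cells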
Direction: replicate 1, z-score of dpERK with insulin and replicate 2, z-score of dpERK with insulin: higher = more active ERK per ERK-YFP after insulin; replicate 1, z-score of dpERK under basal conditions: higher = more basal active ERK per ERK-YFP; replicate 1, z-score of ERK-YFP with insulin: higher = more YFP-tagged ERK signal

target gene | dsRNA | replicate 1, z-score of dpERK with insulin | replicate 2, z-score of dpERK with insulin | replicate 1, z-score of dpERK under basal conditions | replicate 1, z-score of ERK-YFP with insulin
Spc25 | DRSC14164 | -1.5 | -1.14 | -1.23 | -0.71
CG33012 | DRSC06287 | 0.66 | 0.6 | 0.68 | -0.39
CG33012 | DRSC06288 | 0.93 | 1.47 | 0.96 | 0.03
CG30184 | DRSC22277 | -0.02 | -0.18 | 0.36 | -0.32
CG4950 | DRSC10463 | 0.04 | -0.84 | -0.87 | -0.29
und | DRSC03629 | -0.37 | -1.62 | 0.16 | -0.22
Ublcp1 | DRSC14149 | -0.34 | 0.11 | 0.08 | 0.92
CG9426 | DRSC03219 | -2.32 | -0.19 | 0.75 | -0.99
Xpc | DRSC07654 | -0.05 | 0.65 | 1.06 | -0.16
CG7443 | DRSC16244 | -0.21 | 0.54 | 0.43 | 0.28
Evi5 | DRSC19421 | 0.02 | 0.09 | 0.27 | -0.12
AspRS | DRSC05914 | 0.01 | -0.31 | -0.09 | 0.22
Arf6 | DRSC05921 | -1.49 | -1.38 | 0.48 | 0.32
CNT2 | DRSC07073 | 0.97 | 0.92 | 0.73 | 0.44
Gbeta76C | DRSC11174 | -0.28 | -0.38 | 0.95 | 0.89
beat-IIIb | DRSC02435 | -0.41 | 0.28 | -0.3 | 0.71
Klp67A + CG34456 | DRSC10420 | -0.13 | 0.24 | 0.5 | 0.77
CG7872 | DRSC20062 | 0.32 | 0.08 | -0.09 | 0.48
CG32176 | DRSC10057 | -0.5 | 0.04 | -0.89 | 0.32
CG32176 | DRSC10058 | -1.13 | -0.32 | -0.78 | 0.74
kraken | DRSC00824 | -0.22 | 0.49 | 0.34 | 0.01
CG34280 | DRSC13229 | 1.82 | -0.04 | 0.01 | -0.03
Phf7 | DRSC20692 | 0.49 | 0.01 | 0.82 | -0.91
CG30222 | DRSC04125 | -0.47 | -1.62 | 0.9 | -0.67
CG30222 | DRSC04262 | -0.3 | 0.09 | 0.13 | 0.91
snRNA:U1:95Cc + snRNA:U1:95Cb | DRSC13641 | 0.96 | 0.49 | 1.48 | -0.98
CG9717 | DRSC16543 | 0.11 | -0.2 | -0.15 | 0.47
CG14881 | DRSC15005 | 0.2 | 0.5 | -1.18 | -0.89
RhoGAP102A | DRSC17110 | 0.37 | 0.35 | 1.88 | 0.44
RhoGAP102A | DRSC17145 | 0.12 | 0.28 | -0.22 | -0.27
CG4281 | DRSC18521 | -0.1 | 0.24 | -0.72 | 0.39
CG17177 | DRSC10257 | 1.79 | -1.05 | -1.16 | 0.05
boil | DRSC17872 | 0.78 | -0.13 | -0.2 | 0
TotZ | DRSC13450 | -1.01 | 0.2 | 0.6 | 0.29
Rfx | DRSC16820 | -0.4 | -0.11 | -0.52 | -2.58
CG3491 | DRSC01934 | -1.51 | -0.33 | -0.67 | -0.52
Pex14 | DRSC11754 | 0.72 | 0.31 | 0.22 | -0.36
CG1636 | DRSC18111 | 1.23 | 2.1 | 0.55 | -0.16
CG2519 | DRSC12312 | -0.72 | 0.1 | 2.05 | -1.64
CheA29a | DRSC21486 | -0.16 | 0.55 | -0.71 | -1.05
CG3906 | DRSC04431 | 0.38 | -0.36 | 0.32 | -0.45
ND-B14 | DRSC07029 | -1.07 | 0.48 | -0.15 | 0.94
Ir56c | DRSC06544 | -0.17 | -0.05 | -0.63 | 0.55
CG10713 | DRSC09786 | 0.86 | 0.42 | 0.01 | 0.36
CG33310 | DRSC01897 | 0.52 | 0.63 | 0.24 | -0.32
prc | DRSC11385 | 0.81 | 0.32 | 0.09 | 0.19
CG32299 + CG32298 | DRSC07980 | 0.25 | 0.13 | 0.02 | -0.21
CG32299 + CG32298 | DRSC22354 | -0.04 | -0.12 | 0.18 | 0.48
Btk | DRSC02008 | 0.79 | 0.31 | 0.72 | -0.09
Btk | DRSC02666 | 0.75 | 0.08 | 0.04 | -0.45
Btk | DRSC22427 | 0.3 | -1.53 | -0.38 | -0.79
Amy-d | DRSC05919 | 0.81 | 0.41 | -0.1 | -0.14
CG14292 | DRSC14772 | 0.42 | 0.3 | 2.07 | -0.45
RpS3 | DRSC16838 | 0.61 | -0.23 | -2.16 | -3.81
Fem-1 | DRSC07322 | 0.01 | 0.67 | -1.05 | -0.36
CG17267 | DRSC15207 | 0 | 0.41 | 0.53 | -0.4
CG7907 | DRSC16339 | 0.8 | -0.49 | 0.46 | 0.67

Sorted by “replicate 1, z-score of dpERK under basal conditions” (low to high): some entries from above.
target gene | dsRNA | replicate 1, z-score of dpERK with insulin | replicate 2, z-score of dpERK with insulin | replicate 1, z-score of dpERK under basal conditions | replicate 1, z-score of ERK-YFP with insulin
CG32176 | DRSC10057 | -0.5 | 0.04 | -0.89 | 0.32
CG7872 | DRSC20062 | 0.32 | 0.08 | -0.09 | 0.48
Klp67A + CG34456 | DRSC10420 | -0.13 | 0.24 | 0.5 | 0.77
